These results are taken from publication PMC8844723.

For this experiment, the target named is T1, human TMEM106A, myc-tagged (human) (UniProt Q96A25).
T1 sequence: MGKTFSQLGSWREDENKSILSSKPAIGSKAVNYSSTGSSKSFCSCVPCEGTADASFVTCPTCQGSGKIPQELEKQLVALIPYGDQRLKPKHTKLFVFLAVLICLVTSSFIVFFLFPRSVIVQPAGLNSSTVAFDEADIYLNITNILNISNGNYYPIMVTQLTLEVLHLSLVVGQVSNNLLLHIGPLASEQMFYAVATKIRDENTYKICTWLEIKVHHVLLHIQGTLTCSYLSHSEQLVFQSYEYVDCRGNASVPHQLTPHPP
Nature of the experiment: co-IP.

Results are given in words; binding and its absence hold for the method and conditions named. Binding seen in cells or lysates may run through a third protein. Binding calls can cover weak binding; strength is not graded here. Sequences can lack the tags named with a protein.

Regarding “HIV-1 Env gp160, C-terminally FLAG-tagged”, the binding result is on record as “binds”.

Regarding “HIV-1 gp120, C-terminally FLAG-tagged (domain or fragment)”, the binding result is “binds”.
